# From PubChem BioAssay (Tox21)
# The chains behind the UniProt entries cited, without tags or fusion partners. Where a name states a change or a piece, a line headed by the entry shows the natural chain unless it says otherwise.
# UniProt P11229: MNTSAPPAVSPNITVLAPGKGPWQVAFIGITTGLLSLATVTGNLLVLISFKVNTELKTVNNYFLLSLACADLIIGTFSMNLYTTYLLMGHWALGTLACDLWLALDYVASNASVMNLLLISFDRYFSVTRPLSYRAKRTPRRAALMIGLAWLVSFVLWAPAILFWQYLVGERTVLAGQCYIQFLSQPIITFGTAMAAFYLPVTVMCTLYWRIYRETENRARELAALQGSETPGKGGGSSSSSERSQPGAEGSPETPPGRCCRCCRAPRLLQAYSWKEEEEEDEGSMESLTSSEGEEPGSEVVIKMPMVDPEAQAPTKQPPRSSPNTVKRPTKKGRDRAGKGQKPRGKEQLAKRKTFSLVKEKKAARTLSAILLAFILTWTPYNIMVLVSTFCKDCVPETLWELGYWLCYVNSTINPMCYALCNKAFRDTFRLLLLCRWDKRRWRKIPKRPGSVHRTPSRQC
# UniProt P14416, whole entry, looked up: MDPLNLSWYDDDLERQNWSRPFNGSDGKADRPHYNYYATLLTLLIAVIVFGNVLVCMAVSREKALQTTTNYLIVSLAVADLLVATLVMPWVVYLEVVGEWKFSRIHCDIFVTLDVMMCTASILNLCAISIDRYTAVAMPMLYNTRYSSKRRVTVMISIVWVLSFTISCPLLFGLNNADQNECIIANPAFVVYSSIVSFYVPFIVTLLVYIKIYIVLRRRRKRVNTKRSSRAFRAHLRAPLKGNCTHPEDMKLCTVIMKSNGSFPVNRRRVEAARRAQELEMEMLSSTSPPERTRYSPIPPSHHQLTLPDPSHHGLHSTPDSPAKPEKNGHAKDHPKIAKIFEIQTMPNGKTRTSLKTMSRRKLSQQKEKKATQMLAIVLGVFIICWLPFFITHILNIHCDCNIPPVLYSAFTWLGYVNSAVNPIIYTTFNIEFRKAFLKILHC
# UniProt P28223, whole entry, looked up: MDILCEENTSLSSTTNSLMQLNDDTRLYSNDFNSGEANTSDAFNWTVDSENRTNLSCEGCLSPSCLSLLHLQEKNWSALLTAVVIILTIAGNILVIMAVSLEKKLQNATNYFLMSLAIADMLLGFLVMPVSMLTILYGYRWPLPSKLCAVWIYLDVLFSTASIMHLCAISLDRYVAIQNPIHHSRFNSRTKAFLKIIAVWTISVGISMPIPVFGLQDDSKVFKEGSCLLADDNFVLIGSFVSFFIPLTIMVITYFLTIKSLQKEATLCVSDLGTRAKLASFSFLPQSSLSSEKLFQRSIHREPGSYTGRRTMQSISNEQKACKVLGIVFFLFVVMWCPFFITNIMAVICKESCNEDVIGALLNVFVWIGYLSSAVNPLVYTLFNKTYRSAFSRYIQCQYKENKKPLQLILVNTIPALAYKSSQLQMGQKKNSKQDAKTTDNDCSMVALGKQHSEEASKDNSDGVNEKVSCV
# Several values for one entry are separate records, joined by “and”; a condition that tells them apart may be missing. Entries that show only a call come without a potency. Identical values can stand only once. This list was built around the results that the source calls inconclusive (neither active nor inactive); the mix of calls is not that of the screen. For part of these data: Where the call is inconclusive, the potency comes from a doubtful curve fit. Activity calls are given as the source filed them. Unless noted, the call rests on the fitted dose curve.
# How the values were obtained:
# [1] = p53 small molecule agonists, cell-based qHTS assay with human liver microsomes (AID 1963577); conditions: HCT-116 p53RE-bla with human liver microsomes, ratio, 16 h; activation: at 66 µM (top of the series) unless noted; further: potency means the concentration at half of the fitted maximal effect;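 on activation: p53 response element beta-lactamase reporter cells with liver microsomes plus NADPH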
# How it was run: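 Fluorescence of the beta-lactamase reporter in p53RE-bla cells, detected with LiveBLAzer substrate (2 h, room temperature, dark), served as the read-out after 16 h compound exposure at 37 C with human liver microsomes and NADPH, each 0.5 mg/mL final.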
# [2] = biological target: Muscarinic acetylcholine receptor M1 (Homo sapiens) (UniProt P11229); experiment: Cholinergic receptor muscarinic 1 (CHRM1) small molecule antagonists, cell-based qHTS assay (AID 1963588); conditions: CHRM1-CHO antagonist mode, calcium flux fluorescence; series mostly up to 61.5 µM; further: nearly all actives have a fitted effect of over 40% in size; further: potency means the concentration at half of the fitted maximal effect
# How it was run: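 CHRM1-CHO calcium-flux assay, antagonist mode. Cells were seeded 18 h, dye-loaded 1 h at 37 C and given compound for 5 min at RT, then acetylcholine was added at 50nM. FDSS fluorescence was read 3 min; 15 concentrations, three runs.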
# [3] = cAMP Responsive Elements (CRE) small molecule agonists, cell-based qHTS assay (AID 1963590); conditions: CRE-bla HEK293T, beta-lactamase FRET ratio, 3 h; activation: at 92.4 µM (top of the series) unless noted; further: potency means the concentration at half of the fitted maximal effect
# How it was run: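 CRE-bla HEK 293T cells, 2,000/well in DMEM with 10% dialyzed FBS and 25 mM HEPES, pre-incubated 18 h at 37 C, then exposed to compound 3 h at 37 C. Beta-lactamase reporter read with LiveBLAzer B/G FRET substrate after 2 h at room temperature.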
# [4] = cAMP Responsive Elements (CRE) small molecule antagonists, cell-based qHTS assay (AID 1963591; active means well fitted inhibition curve with a large enough effect in the signal ratio in the repeat runs, not every such curve was filed as active; inconclusive means weak or mixed curves, or effect the other way; the % refers to the signal ratio; further: potency means the concentration at half of the fitted maximal effect); conditions: CRE-bla HEK293T, beta-lactamase FRET ratio; activity change, negative = inhibition: at 92.4 µM (top of the series) unless noted
# How it was run: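 CRE-bla HEK293T cells plated 18 h, then given compound plus NKH477 at 0.25 uM final for 3 h at 37C. Beta-lactamase reporter read with LiveBLAzer B/G FRET substrate after 2 h at room temperature.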
# [5] = biological target: Beta-2 adrenergic receptor (Homo sapiens) (UniProt P07550); experiment: Adrenergic beta2 receptor (ADRB2) small molecule antagonists, cell-based qHTS assay (AID 1963592); conditions: CHO-ADRB2 cells, isoproterenol-stimulated cAMP HTRF ratio, 0.5 h; activity change, negative = inhibition: at 92.4 µM (top of the series) unless noted; further: nearly all actives have a fitted effect of over 50% in size
# How it was run: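 Cells (CHO, stable ADRB2 overexpression) incubated 18-20hr at 37C; compounds added from DMSO; agonist mix (1nM isoproterenol, 100uM IBMX, 25uM Ro-20-1724) added; 0.5hr RT; d2-cAMP and anti-cAMP-cryptate added; 1hr RT; 665/615 nm read.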
# [6] = biological target: Beta-2 adrenergic receptor (Homo sapiens) (UniProt P07550); experiment: Adrenergic beta2 receptor (ADRB2) small molecule agonists, cell-based qHTS assay (AID 1963593); conditions: CHO-ADRB2 cells, cAMP HTRF, 30 min; activation: at 92.4 µM (top of the series) unless noted; further: potency means the concentration at half of the fitted maximal effect;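 on activation: CHO cells stably overexpressing human ADRB2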
# How it was run: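 CHO cells stably over-expressing ADRB2 were plated overnight at 37C, then dosed with compounds plus a stimulation mix containing 100uM IBMX and 25uM Ro-20-1724 for 0.5hr at room temperature. cAMP was measured by HTRF competition, 1hr.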
# [7] = biological target: D(2) dopamine receptor (Homo sapiens) (UniProt P14416); experiment: Dopamine D2 receptor (DRD2) small molecule antagonists, cell-based qHTS assay (AID 1963595; active means well fitted inhibition curve with a large enough effect in the signal ratio in the repeat runs, with a control signal flat; inconclusive means weak or mixed curves, or effect the other way; the % refers to the signal ratio); conditions: HEK293-DRD2 cAMP HTRF antagonist mode; activity change, negative = inhibition: at 92.4 µM (top of the series) unless noted
# How it was run: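 HTRF cAMP read-out at 665 and 620 nm emission (340 nm excitation). Antagonist mode: compounds were tested against 12 nM quinpirole in DRD2-HEK293 cells, with 200 nM NKH477 raising cAMP and 0.1 mM Ro20-1724 blocking its breakdown.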
# [8] = biological target: 5-hydroxytryptamine receptor 2A (Homo sapiens) (UniProt P28223); experiment: 5-hydroxytryptamine receptor 2A (HTR2A) small molecule agonists, cell-based qHTS assay (AID 1963587); conditions: HTR2A-CHO cells, calcium flux fluorescence, agonist mode; series mostly up to 76.8 µM; further: nearly all actives have a fitted effect of over 30% in size; further: potency means the concentration at half of the fitted maximal effect
# How it was run: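 HTR2A-CHO cells, plated 18 h at 37 C/5% CO2, dye-loaded 1 h at 37 C; compounds in DMSO added by pin tool (agonist mode). Intracellular calcium flux read as kinetic fluorescence on FDSS over 2 min at 1 s intervals.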
# [9] = biological target: D(2) dopamine receptor (Homo sapiens) (UniProt P14416); experiment: Dopamine D2 receptor (DRD2) small molecule agonists, cell-based qHTS assay (AID 1963594); conditions: HEK293-DRD2 cAMP HTRF, agonist mode, 30 min; activation: at 92.4 µM (top of the series) unless noted; further: nearly all actives have a fitted effect of over 35% in size; further: potency means the concentration at half of the fitted maximal effect
# How it was run: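 HEK293 cells stably expressing DRD2 were cultured 24 h at 37 C, then given Ro20-1724 (0.1 mM final) and compounds for 10 min at room temperature. NKH477 (200nM) was then added for 30 min. cAMP was read by HTRF.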
# [10] = biological target: 5-hydroxytryptamine receptor 2A (Homo sapiens) (UniProt P28223); experiment: 5-hydroxytryptamine receptor 2A (HTR2A) small molecule antagonists, cell-based qHTS assay (AID 1963586); conditions: HTR2A-CHO cells, DOI-induced calcium flux, fluorescence; series mostly up to 61.5 µM; further: potency means the concentration at half of the fitted maximal effect; nearly all actives have a fitted effect of over 45% in size
# How it was run: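 Antagonist-mode intracellular calcium assay: DOI (4 nM) added after 5 min compound pre-incubation at room temperature to dye-loaded HTR2A-CHO cells. Fluorescence followed for 3 min, sampled every second.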
structure (smiles),measurement,setting,value
Cc1cc(C(=O)O)ccc1[N+](=O)[O-],Potency,[1],inactive
same,Potency,[2],"inconclusive: 1.68 µM [inhibitor, single point]"
same,Potency,[3],"inconclusive: 30.7 µM [rising, partial curve, poor fit]"
same,Potency,[4],inactive
same,"activity change, negative = inhibition",[5],inconclusive: -31.2%
same,Potency,[6],inactive
same,Potency,[7],inactive
Cc1ccc([N+](=O)[O-])cc1N,Potency,[1],inactive
same,Potency,[3],inactive
same,Potency,[6],inactive
CC(C)NCC(O)c1ccc2ccccc2c1 (stereo not drawn),Potency,[1],inactive
same,Potency,[8],"inconclusive: 8.49 µM [activator, full curve, poor fit]"
same,Potency,[9],inconclusive: 0.473 µM
Cc1ccc(C(=O)c2ccccc2)cc1,Potency,[1],inactive
same,Potency,[3],"inconclusive: 77 µM [rising, partial curve, poor fit]"
same,Potency,[4],"inconclusive: 68.6 µM [rising, single point]"
same,Potency,[6],inactive
CC(=O)OC(C(=O)c1ccccc1)c1ccccc1 (stereo not drawn),Potency,[1],inconclusive: 46 µM [fluorescent]
same,Potency,[10],active: 0.0011 µM
same,Potency,[6],"inconclusive: 0.0867 µM [inhibitor, full curve, poor fit]"
FC(F)(F)C(F)(F)C(F)(F)C(F)(F)C(F)(F)C(F)(F)CCI,Potency,[1],inactive
same,Potency,[2],inactive
same,Potency,[6],inactive
CCN(CC)CCNC(=O)COc1ccc(OC)cc1,activation,[1],inconclusive: 15.1% [at 30.3 µM]
same,Potency,[2],inactive
same,Potency,[4],inactive
same,Potency,[6],inactive
CC(=O)Nc1ccc(C(=O)O)cc1,Potency,[1],inactive
same,Potency,[3],inactive
same,activation,[6],inconclusive: -0.727%
Cc1onc(-c2c(Cl)cccc2Cl)c1C(=O)Cl,Potency,[1],inconclusive: 22.3 µM [fluorescent]
same,Potency,[3],"inconclusive: 10.6 µM [rising, full curve, poor fit]"
same,Potency,[4],inactive
CC(=O)/C=C/C=C1/C2CCC(C2)C1(C)C (stereo not drawn),activation,[1],inconclusive: -4.71% [at 30.3 µM]
same,Potency,[3],inactive
same,Potency,[6],inactive
CCCCCCCCCOS(=O)(=O)O,Potency,[1],inactive
same,Potency,[8],inactive
same,Potency,[2],inactive
same,Potency,[6],inactive
O=C1CCCCCN1,Potency,[1],"inconclusive: 51.5 µM [fluorescent, single point]"
same,Potency,[8],"inconclusive: 55.1 µM [activator, partial curve, poor fit]"
same,Potency,[3],inactive
same,activation,[6],inconclusive: 31.8% and inconclusive: 1.03%
CO/N=C(/C(=O)N[C@@H]1C(=O)N2C(C(=O)OCOC(=O)C(C)(C)C)=C(C)CS[C@H]12)c1csc(N)n1,Potency,[1],inconclusive: 22.3 µM [fluorescent]
same,Potency,[8],inactive
same,Potency,[3],"inconclusive: 29.8 µM [rising, partial curve]"
same,Potency,[4],"inconclusive: 29.8 µM [fluorescent, single point]"
same,Potency,[6],"inconclusive: 23.7 µM [inhibitor, partial curve, poor fit]"
CO[C@]1(NC(=O)CSC(F)F)C(=O)N2C(C(=O)O)=C(CSc3nnnn3CCO)CO[C@H]21,Potency,[1],"inconclusive: 22.3 µM [fluorescent, partial curve, poor fit]"
same,Potency,[2],inactive
same,Potency,[4],inactive
same,Potency,[6],inactive
CC(C)n1nc(-c2cc3cc(O)ccc3[nH]2)c2c(N)ncnc21,activation,[1],inconclusive: -22.5% [at 30.3 µM]
same,Potency,[3],inconclusive: 16.8 µM [fluorescent]
same,Potency,[4],"inconclusive: 29.8 µM [rising, partial curve, poor fit]"
same,Potency,[6],inactive
O=Cc1ccc(Cl)cc1,Potency,[1],inactive
same,Potency,[3],inactive
same,Potency,[5],inactive
same,activation,[6],inconclusive: 47.3%
same,Potency,[9],inactive
O=C(O)C(O)[C@H](O)[C@@H](O)[C@H](O)[C@H](O)CO (stereo partly drawn),Potency,[1],inactive
same,Potency,[8],inactive
same,Potency,[4],inactive
same,activation,[6],inconclusive: -0.82%
CCC1CO1 (stereo not drawn),Potency,[1],inactive
same,Potency,[3],inactive
same,Potency,[6],"inconclusive: 41.9 µM [inhibitor, single point]"
COC(=O)C1CCC(C(=O)OC)CC1 (stereo not drawn),Potency,[1],inactive
same,Potency,[2],"inconclusive: 0.0149 µM [inhibitor, full curve, poor fit]"
same,Potency,[4],inactive
Cc1nc(C2CCCCC2)c(-c2ccc(S(N)(=O)=O)c(F)c2)o1,Potency,[1],inactive
same,Potency,[3],"inconclusive: 26.6 µM [activator, partial curve]"
same,Potency,[4],"inconclusive: 7.5 µM [activator, partial curve]"
OCCOCCOCCOCCO,Potency,[1],"inconclusive: 46.7 µM [fluorescent, partial curve, poor fit]"
same,Potency,[10],"inconclusive: 0.0027 µM [inhibitor, full curve, poor fit]"
same,Potency,[6],"inactive and inconclusive: 19.3 µM [inhibitor, partial curve, poor fit]"
